Experimental data: PubChem BioAssay AID2685 (National Center for Advancing Translational Sciences (NCATS), 2010)
Out of some 320,000 compounds screened, about 2,100 (0.66%) were called active. The shares of active, inactive and inconclusive entries below differ from those in the screen. Calls come from the whole dose curve; as a rule, active = well fitted inhibition curve with a large enough effect in the signal ratio, with a control signal flat (not every such curve was filed as active); inconclusive = small, poorly fitted or top-dose-only effect, or effect the other way, or a change in a side signal; inactive = flat fitted curve, though single readings scatter; the % refers to the signal ratio. Potencies beside an inconclusive call are fits to weak or partial responses and may not hold up.

experiment: qHTS Assay for Lipid Storage Modulators in Drosophila S3 Cells; details: BODIPY lipid droplet fluorescence, 18-24 h, cells fed with added oleic acid; lipid storage change, negative = inhibition: at 46.1 µM (top of the series) unless noted
Procedure, shortened: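 Laser-scanning cytometry quantifies lipid droplet accumulation (500–530 nm total intensity; droplet/cell object ratio) in oleic acid-fed (400 uM added) Drosophila S3 cells treated with a concentration series. 20 uM Triacsin C defined 100% inhibition.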
% is set by controls: 0 for no effect and ±100 for the full control effect; potency is the fitted concentration of half-maximal effect.

SMILES | lipid storage change, negative = inhibition | Potency | outcome
Cc1ccc(S(=O)(=O)N2CCN(c3ccccc3)CC2)cc1 | inconclusive: -17.5% |  | 
Cn1c(=O)c(C=Nc2ccccc2)c(O)c2ccccc21 |  | inconclusive: 23.1 µM [cytotoxic, single point] | 
Cc1nnc(NC(=O)CSc2ccc([N+](=O)[O-])cn2)s1 | inconclusive: 7.79% |  | 
COc1ccc(CNC(=O)COc2ccc(F)cc2)cc1 |  | inconclusive: 0.58 µM [activator, single point] | 
CCn1cc(C(=O)N2CCN(c3cccc(C)c3C)CC2)c(=O)c2ccc(C)nc21 | inconclusive: 24.8% |  | 
COC(=O)c1[nH]c2cc(C)ccc2c1NC(=O)CN1CCN(C(=O)c2ccco2)CC1 | inconclusive: -5.95% |  | 
Oc1cccc(/C=N/Nc2cc(N3CCOCC3)nc(N3CCOCC3)n2)c1 |  | inconclusive: 1.64 µM [falling, partial curve] | 
CC(NC(=O)C1CCCCC1)c1ccc2c(c1)OCCO2 (configuration not stated) |  |  | inactive [at 46.1 µM]
CCOC(=O)c1nnn(CC(=O)Nc2ccccc2OC)c1C(=O)OCC | inconclusive: -23.2% |  | 
CCN(CC)CCNC(=O)C1c2ccccc2C(=O)N(C)C1c1cn(C)c2ccccc12 (configuration not stated) | inconclusive: -0.154% |  | 
O=C(c1cc(COc2ccc3ncccc3c2)on1)N1CCC[C@H]1CO | inconclusive: 153% |  | 
CC1=NN(C(C)C)C(=O)C1 | inconclusive: -9.5% |  | 
C=C(C)[C@@H](O)COc1c2ccoc2cc2oc(=O)ccc12 | inconclusive: 71.3% |  | 
CN1CCN(c2ccc(NC(=O)CSc3ccccc3)cc2F)CC1 | inconclusive: -32.8% |  | 
COC(=O)CNC(=O)c1cn(CC(C)C)c(=O)c2cc(OC)c(OC)cc12 | inconclusive: -28.5% |  | 
CC(C)CCOc1ccc(C2=NNC(=O)CC2)cc1 | inconclusive: -7.62% |  | 
Cc1nc2ccccn2c1-c1csc(Nc2ccc(C(=O)O)cc2)n1 | inconclusive: -8.95% |  | 
Cc1cc(/C=C/C(=O)O)c(C)n1-c1ccc(Cl)cc1 | inconclusive: -18.6% [at 9.22 µM] |  | 
CN(C)C(=O)CSC1c2ccccc2C(=O)N1c1ccccc1 (configuration not stated) | inconclusive: 12.5% |  | 
c1ccc(Cn2c(SCc3cn4cccnc4n3)nnc2-c2ccco2)cc1 | inconclusive: 11% |  | 
COc1ccc2c(Cl)c(C(=O)OCC(=O)c3ccc4c(c3)NC(=O)CO4)sc2c1Cl | inconclusive: 24.9% |  | 

SMILES | lipid storage change, negative = inhibition | Potency | outcome
C/C(=C\c1ccccc1)CN(C)CCN(C)C | inconclusive: 14.8% |  | 
CC(C)NC(=O)Cn1c(=O)n(CC(=O)N2CCCCC2)c(=O)c2sccc21 | inconclusive: -1.92% |  | 
O=C(NCCCn1ccnc1)c1ccc(OCC(F)(F)F)cc1 | inconclusive: 10.3% |  | 
CC(C)C[C@H](NC(=O)c1nc[nH]c1C(=O)N[C@@H](CCCCNC(=O)OC(C)(C)C)C(=O)OC(C)(C)C)C(=O)OCc1ccccc1 | inconclusive: -97.9% |  | 
O=C(NCC1(c2ccccc2)CCCC1)c1ccccc1 | inconclusive: -4.54% |  | 
COc1ccc(-c2nc(CS(=O)(=O)CC(=O)NCc3cccc(Br)c3)c(C)o2)cc1 |  | active: 13 µM | 
CC1(CCc2ccccc2)NC(=O)N(CC(=O)O)C1=O (configuration not stated) | inactive: -11.3% |  | 
COc1ccccc1C(=O)N1CCN(C2CCN(Cc3ccccc3)CC2)CC1 | inconclusive: -141% |  | 
CCc1ccc(NC(=O)CSc2nc(=O)n3cc(C)ccc3n2)cc1 |  | inconclusive: 8.2 µM [activator, partial curve] | 
COc1ccc(CCNC(=O)c2oc3ccc(OC)cc3c2C)cc1 |  | inconclusive: 1.3 µM [activator, full curve] | 
O=C(Nc1ccc(Cl)c(Cl)c1)c1ccc(Cl)c(Cl)c1 | inconclusive: -1.83% |  | 
CCOc1ccc(Br)cc1S(=O)(=O)Nc1cccnc1 | inconclusive: 71.1% |  | 
COC(=O)C1=C(C(=O)OC)C(c2ccccc2O)c2sc(=O)[nH]c2S1 (configuration not stated) |  | inconclusive: 20.6 µM [activator, single point] | 
Cc1nc2scc(C)n2c(=O)c1S(=O)(=O)NCc1ccc(F)cc1 |  | inconclusive: 29.1 µM [activator, single point] | 
Cc1cccc(C)c1OCc1cc(C(=O)N2CCCC2c2nonc2C)no1 (configuration not stated) | inconclusive: 4.26% |  | 
COc1ccccc1/C=C/C(=O)c1ccc(NC(C)=O)cc1 |  | inconclusive: 29.1 µM [falling, single point] | 
O=[N+]([O-])c1cc(S(=O)(=O)N2CCCCCC2)ccc1F |  | active: 14.6 µM | 
CCC(=O)Nc1ccc(C(=O)COC(=O)C(CCSC)NC(=O)COc2ccccc2)cc1 (configuration not stated) | inconclusive |  | 
CN(CC(=O)Nc1ccccc1C(F)(F)F)C(=O)COc1ncnc2ccccc12 | inconclusive: -16.8% |  | 
O=C(Nc1ccccc1N1CCCCC1)c1ccccc1F | inconclusive: -15.6% |  | 
Cc1cccc(Nc2nc(N)c([N+](=O)[O-])c(N3CCOCC3)n2)c1 | inconclusive: 26.1% |  | 

SMILES | lipid storage change, negative = inhibition | Potency | outcome
CC(=O)NC12CC3CC(C1)CC(C(=O)Nc1nccs1)(C3)C2 | inconclusive: 9.82% |  | 
Cc1ccc(NC(=O)COC(=O)C2=COCCO2)cc1 | inconclusive: -1.9% |  | 
COc1ccc(/C=C(\C#N)C(=O)OCC(=O)NCc2ccccc2OC)cc1 | inconclusive: 40.6% |  | 
COc1cc(CNc2nc3ccccc3s2)cc(OC)c1OC | inconclusive: -12.1% |  | 
Cc1cccc(C)c1NC(=O)CNC(=O)C(C)N1CCCCC1 (configuration not stated) | inconclusive: 19.9% |  | 
CCCC(=O)Oc1ccc(N(C(=O)CCC)S(=O)(=O)c2cccs2)cc1 | inconclusive: -58.3% |  | 
CCCCCCCCCc1nc2sc3c(c2c(=O)n1NC(=O)c1ccc([N+](=O)[O-])cc1)CC(C)(C)OC3 | inconclusive: -37% |  | 
C#CC[N+](C)(C)CCCCCCCCC |  | inconclusive: 0.731 µM [falling, partial curve, poor fit] | 
COCc1c(C(=O)Nc2ccc3nc(N4CCOCC4)sc3c2)oc2ccccc12 |  | inconclusive: 29.1 µM [falling, single point] | 
CC(=O)Nc1sc2c(c1C#N)CCN(Cc1ccccc1)C2 | inconclusive: -39.3% |  | 
CCCC(=O)C1=C(O)C(C(=O)OC)C(C)(C)CC1=N (configuration not stated) | inconclusive: 2.26% |  | 
O=C(COc1ccc2c(C(F)(F)F)cc(=O)oc2c1)NCc1cccs1 | inconclusive: 17.2% |  | 
COc1ccc(C(=O)OCC2CC(c3ccccc3)=NO2)cc1OC (configuration not stated) | inconclusive: 7.73% |  | 
CC1(c2ccc(Cl)cc2Cl)OCC(Cn2ccnc2)O1 (configuration not stated) | inconclusive: -17.2% |  | 
CC(=O)c1c(C)nc(-c2ccc(OCC(=O)Nc3cccc(C)c3C)cc2)n1O | inconclusive: 1.29% |  | 
COc1ccccc1NC(=S)N1CCN(C/C=C/c2ccccc2)CC1 | inconclusive: 41.7% |  | 
COc1ccc(-n2c(=S)[nH]c3cc(C(=O)N4CCN(c5ccccc5)CC4)ccc3c2=O)c(OC)c1 | inconclusive: -53.9% |  | 
CC(=O)Nc1ccc(S(=O)(=O)NC2CCSc3ccccc32)cc1 (configuration not stated) | inconclusive: 68.8% |  | 
COC(=O)c1cccc(Oc2nc3c(c(=O)n(C)c(=O)n3C)n2C(C)C)c1 | inconclusive: -9.17% |  | 
Cc1ccc(C(=O)NCCc2ccccc2)cc1 |  | inconclusive: 0.103 µM [activator, full curve, poor fit] | 
CCOC(=O)c1ccccc1-c1csc(N)n1 | inconclusive: -11.9% |  | 

An excerpt from above in order of heavy-atom count, low to high.
SMILES | lipid storage change, negative = inhibition | Potency | outcome
Cc1ccc(NC(=O)COC(=O)C2=COCCO2)cc1 | inconclusive: -1.9% |  | 
COc1ccc(CNC(=O)COc2ccc(F)cc2)cc1 |  | inconclusive: 0.58 µM [activator, single point] | 
COC(=O)c1[nH]c2cc(C)ccc2c1NC(=O)CN1CCN(C(=O)c2ccco2)CC1 | inconclusive: -5.95% |  | 

More entries follow.

SMILES | lipid storage change, negative = inhibition | Potency | outcome
CN(CC(=O)NC(=O)NCc1ccccc1)Cc1cccc(Cl)c1Cl | inconclusive: 179% |  | 
CC1(c2ccccc2)NC(=O)N(CC(=O)NCc2cccc(Cl)c2)C1=O (configuration not stated) | inconclusive: 135% |  | 
CCOC(=O)N1CCC(=NNC(=O)NC2CCCCC2)CC1 | inconclusive: -33% [cytotoxic] |  | 
C/C(=N\Nc1ccccn1)c1ccc(OC(F)F)cc1 | inconclusive: -39.1% [at 0.00295 µM] |  | 
O=C(O)CNS(=O)(=O)c1ccc(Br)s1 | inconclusive: -173% |  | 
COc1cc(C(=O)NCCOc2ccccc2C)c(Br)c(OC)c1OC | inconclusive: 6.48% |  | 
CC1CCCCN1C(=O)COc1ccc(NC(=O)c2ccco2)cc1 (configuration not stated) |  | inconclusive: 1.84 µM [activator, partial curve] | 
Oc1ccc(Cl)cc1-c1cc(C(F)(F)C(F)F)nc(-c2ccccc2)n1 | inconclusive: 272% |  | 
CCC(C)[C@H](NC(=O)[C@H](Cc1ccccc1)n1c(=O)[nH]c2ccccc2c1=O)C(=O)N1CCC[C@@H]1C(=O)O (some centres not stated) | inconclusive: 117% |  | 
Cc1ccccc1NC(=S)c1nc2ccccc2[nH]1 | inconclusive: 1.17% |  | 
CCOC(=O)NN=C1CCC(c2ccccc2)CC1 (configuration not stated) | inconclusive: 6.66% |  | 
Cc1ccc2c(c1)C(=O)C(=O)N2CC1COc2ccccc2O1 (configuration not stated) | inconclusive: -43.7% |  | 
Cc1cc(C)n(C/C=C/Cn2nc(C)cc2C)n1 | inconclusive: -5.49% |  | 
COc1cc(C)ccc1S(=O)(=O)N1CCN(C23CC4CC(CC(C4)C2)C3)CC1 |  | inconclusive: 25.9 µM [cytotoxic, partial curve] | 
CN(CC(=O)NCc1ccco1)S(=O)(=O)c1ccc(F)cc1 |  | inconclusive: 29.1 µM [activator, single point] | 
COc1cc(NC(=O)Cc2ccccc2)ccc1NC(=O)c1ccco1 |  | inconclusive: 5.8 µM [activator, single point] | 
Cc1ccc(C)c(CSc2nnc(C)c(=O)n2N)c1 |  | inconclusive: 0.082 µM [falling, full curve, poor fit] | 
CC1(C)CC(=O)C(C=NCCN2CCNC2=O)=C(O)C1 | inconclusive: 4.83% |  | 
Cc1ccc(NC(=O)CN(C)S(=O)(=O)c2ccc(Br)s2)cc1F | inconclusive: -0.643% |  | 
